This is one part of the list.

The chains behind the UniProt entries cited, without tags or fusion partners.
UniProt Q0JBA9, entry or part of it: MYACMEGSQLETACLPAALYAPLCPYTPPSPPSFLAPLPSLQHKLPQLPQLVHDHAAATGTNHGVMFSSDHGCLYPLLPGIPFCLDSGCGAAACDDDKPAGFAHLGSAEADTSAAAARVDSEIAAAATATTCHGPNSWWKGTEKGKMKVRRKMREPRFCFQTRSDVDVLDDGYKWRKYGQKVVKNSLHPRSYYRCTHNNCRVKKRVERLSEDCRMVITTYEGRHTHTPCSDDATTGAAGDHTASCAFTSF

The target in the assay is OsWRKY34 (Oryza sativa, UniProt Q0JBA9 1-250). The assay can be described thus: protein-binding microarray (RPBM); PBS, 2% BSA, 51.3 ng/ul salmon testes DNA, 50 uM zinc acetate, 200 nM TF, 25 C, 1 h; high values mean tight binding. The following applies: protein: recombinant; tags: N-terminal polyhistidine and DsRed monomer fusion (pET32a); label: CyDye5-dUTP incorporated in the synthesized complementary strand; 3' TTTTT single-stranded linker to array surface; dsDNA, one strand shown. The essentials:
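Polyhistidine-tagged DsRed fusions of transcription factors, joined at the N-terminus, were expressed in E. coli BL21-CodonPlus and isolated on Ni–NTA. They were incubated at 200 nM for 1 h at 25 °C on a custom Agilent array, double-stranded and BSA-blocked, in PBS with 2% BSA, salmon testes DNA and 50 µM zinc acetate. The binding signal is per-feature fluorescence intensity (arbitrary units) read on an Axon 4000B scanner after washing.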
In the case of “ACCTACTCTCTCTCTCTGTCTCTCGCTCTCGCCGTCGCCGCGGAGTCACCTAGTGCAG”, the binding signal was 10900 fluorescence intensity (a.u.).
On to “CGATCATCTCCTCAAGCCATAGCAATGCATCATATGTTCTCGGAGTCACCTAGTGCAG”, for which the binding signal is 9520 fluorescence intensity (a.u.).
The figure for “GTACTAGCTAGCTACCACTCTATCTTCTTCTTCTTCTACCCGGAGTCACCTAGTGCAG” is 8290 fluorescence intensity (a.u.); for “CAATCCAATCCGGGCCCACCTGTCATACAAATATCCACGACGGAGTCACCTAGTGCAG” it is 8070 fluorescence intensity (a.u.).
Then “GAACATCCATGTGTATTTCCATTTCGTTTATACTATATGCCGGAGTCACCTAGTGCAG”, with 9200 fluorescence intensity (a.u.); and “TTCACTTGGATCTTGTTGATGGTTTTTTTTTAGAATTACACGGAGTCACCTAGTGCAG”, with 10300 fluorescence intensity (a.u.).
In the case of “GGAATAAGTTCACTTTAGGTCTCTCTATTTGTTGACCAGTCGGAGTCACCTAGTGCAG”, the binding signal was 9670 fluorescence intensity (a.u.).
Turning to “ATCCTTAATTAGTACGGAGTATGTTCTTATTATTCTAATTCGGAGTCACCTAGTGCAG”, the binding signal was 8040 fluorescence intensity (a.u.).
Then “ATAACCGTGAGGATAAATTCACCGCTTCGATCTCTCCCATCGGAGTCACCTAGTGCAG”, with 8510 fluorescence intensity (a.u.); and “GTTGAGTGTTGAGCTCGGTCGTCCTGTTCTTGACTTCTCGCGGAGTCACCTAGTGCAG”, with 10600 fluorescence intensity (a.u.).
Take “GCTCCTCTCTCTCTCACCTTCTTGTTGGCCCCACGTGTCACGGAGTCACCTAGTGCAG”: the binding signal was 8390 fluorescence intensity (a.u.).
“AGTTGTATCTACCCTCTAATCTTGCGAAGAATAGTCTACACGGAGTCACCTAGTGCAG”: the binding signal was 8180 fluorescence intensity (a.u.).
Then “GGACCCAACGTTGTGTTTTGCTCGTTTGATGATCTTCTATCGGAGTCACCTAGTGCAG”, with 8430 fluorescence intensity (a.u.).
As to “TGGAGCACATCTTTTCGTATTTTCATGGATGTCGCATCTACGGAGTCACCTAGTGCAG”, the binding signal was 8930 fluorescence intensity (a.u.).
The figure for “GACGAATGGTCAAACGTTGGATAAAAAGTCAACAGCGTCACGGAGTCACCTAGTGCAG” is 10200 fluorescence intensity (a.u.); for “TAAGGTGTGTTTAGTTCTTTGGGTGTAAAGTTTTTGAAGTCGGAGTCACCTAGTGCAG” it is 10600 fluorescence intensity (a.u.); for “CCATTAGGGTCCAGCTTATTGACCGTTTCGCACCATACACCGGAGTCACCTAGTGCAG” it is 11100 fluorescence intensity (a.u.).
Turning to “TCGGCGATCCTTCGATATCACTAATCTAGCATTCCACCAACGGAGTCACCTAGTGCAG”, the binding signal is 8170 fluorescence intensity (a.u.).
On to “TCTCTTGGTTTCTCTCTCTAGCCATCGGCTGCCTCTCTCTCGGAGTCACCTAGTGCAG”, for which the binding signal is 8330 fluorescence intensity (a.u.).
As for “TGGGCAGGGGCACTCGCGCCGTCGGTTGGGGAAGAGAGGGCGGAGTCACCTAGTGCAG”, the binding signal was 9260 fluorescence intensity (a.u.).
For “TTCCCCACCTCTACGCGCCTCCGCCTCCGCCTCCGCCATGCGGAGTCACCTAGTGCAG”, the binding signal was 10300 fluorescence intensity (a.u.).
For the sequence “CACATAAGCTAGCTTTGCAGCCACAGTCATCTCCATCGGACGGAGTCACCTAGTGCAG”, the binding signal is 8070 fluorescence intensity (a.u.).
Take “ACCGTCCCACCTCAAGGCCGGCACCCTGTCACTCCACCTCCGGAGTCACCTAGTGCAG”: the binding signal is 9050 fluorescence intensity (a.u.).
The figure for “TCACATCACATGATAGTCATACTGTTTGCCCCAATAGACACGGAGTCACCTAGTGCAG” is 9080 fluorescence intensity (a.u.).
Turning to “AAAAATTATTTTTCTCACATTATGCAGTCGTTTCATTTCTCGGAGTCACCTAGTGCAG”, the binding signal is 9210 fluorescence intensity (a.u.).
On to “ATAGTTAGGCAAGTTTGACTTTTGGTGTAAATGTTTGGTTCGGAGTCACCTAGTGCAG”, for which the binding signal is 12700 fluorescence intensity (a.u.).
Then “GAGGGTTATTACTTAGCACCGTTGACTACTACTTTAATCTCGGAGTCACCTAGTGCAG”, with 10000 fluorescence intensity (a.u.); and “GCAACTCTTATATCTATTTCTGTTATTACAATGGAATTCCCGGAGTCACCTAGTGCAG”, with 9300 fluorescence intensity (a.u.); and “CCGCCACATGCTGCTGCCGCCCCAGCCGTCGGCTGCTTCTCGGAGTCACCTAGTGCAG”, with 8560 fluorescence intensity (a.u.).
Regarding “GCACGTGACGACCAGCTCCCTTCGATCACCTTGCTCCCAACGGAGTCACCTAGTGCAG”, the binding signal is 8180 fluorescence intensity (a.u.).
As to “ACCACCTTAAAATGGCCCACACTACTTCCGTGTAAATTCACGGAGTCACCTAGTGCAG”, the binding signal is 8900 fluorescence intensity (a.u.).
For the sequence “CTCCATCGATCGCGTCCTCCTTACATTACTCCGCCCGCTGCGGAGTCACCTAGTGCAG”, the binding signal is 14200 fluorescence intensity (a.u.).
With “CCGCTGCTCTTATTTCTTCTTTCTTATCTTCTTAAAATATCGGAGTCACCTAGTGCAG”, the binding signal is 9520 fluorescence intensity (a.u.).
Consider “GCAGTTTCATAATGTTCGTTGCCAACGATCCGAGGTTGTACGGAGTCACCTAGTGCAG”, for which the binding signal is 8440 fluorescence intensity (a.u.).
In the case of “CACTCGCCGGCACGTCGCCATCCAGATCGCACGCATTGACCGGAGTCACCTAGTGCAG”, the binding signal was 9300 fluorescence intensity (a.u.).
The figure for “AGGAAAACCAAACCTGCACCACACACGCCGCGGCTCTCGTCGGAGTCACCTAGTGCAG” is 11500 fluorescence intensity (a.u.); for “CCGCCGTTGACTTTTTGTCTAACGTTTGACCATTCGTCTTCGGAGTCACCTAGTGCAG” it is 36200 fluorescence intensity (a.u.); for “TCTTATCTGCATCCAACTGTACTCCAGCATGATCCACAACCGGAGTCACCTAGTGCAG” it is 9300 fluorescence intensity (a.u.).
Consider “GTGGTGGCGGTGGTGGTGGCGCCATGGACAAACGGACGGACGGAGTCACCTAGTGCAG”, for which the binding signal was 8400 fluorescence intensity (a.u.).
On to “AGCTTCCCTCCTAGTTTCCTTGCACCATCGGCTTTGCCTCCGGAGTCACCTAGTGCAG”, for which the binding signal was 8360 fluorescence intensity (a.u.).
“CAAAACAGAAGAGCCAGGTTAGTTTAGTTGGTCATATTCACGGAGTCACCTAGTGCAG”: the binding signal is 8310 fluorescence intensity (a.u.).
As for “CGCCGCTTAGCCCCGCTCGCCGCCGTCCGTTGCTACTCCGCGGAGTCACCTAGTGCAG”, the binding signal is 10600 fluorescence intensity (a.u.).

These data come from PMC7819943, “Rice protein-binding microarrays: a tool to detect cis-acting elements near promoter regions in rice”.
